Measurements from PubChem BioAssay AID504842 (National Center for Advancing Translational Sciences (NCATS), 2011).
The whole screen tested about 330,000 compounds, of which about 100 (0.03%) were called active. The shares of active, inactive and inconclusive entries below differ from those in the screen. Calls follow the shape of the dose curve; as a rule, active = well fitted inhibition curve with a large enough effect; inconclusive = small, poorly fitted or top-dose-only effect; inactive = flat fitted curve, though single readings scatter. A potency beside an inconclusive call is a rough fit, not a confirmed value.

test system: Chaperonin Mm-Cpn (Methanococcus maripaludis); test: Inhibitors of TCP-1 ring complex (TRiC) of Methanococcus maripaludis (MmCpn): qHTS; details: purified Mm-Cpn ATPase, ADP Transcreener TR-FRET; activity, negative = inhibition: at the top concentration; also: nearly all actives have a fitted effect of over 80% in size;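 as to potency: enzyme at 25 nM with ATP substrate at 10 µM during the reaction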
Summary of the method: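 TR-FRET (320 nm excitation; 590 and 665 nm emission) reports ADP made from 10 uM ATP by 25 nM enzyme; compounds were preincubated 10 min, reaction run 30 min, both at 37°C.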
% is scaled to controls: 0 for no effect and ±100 for the full control effect; potency is read from the fitted curve at half-maximal effect.

Structure (SMILES) | Potency | activity, negative = inhibition
O=c1cc(N2CCN(Cc3ccccc3)CC2)c(-c2ccccc2)n[nH]1 | inconclusive: 17.8 µM [inhibitor, single point] | –
Clc1ccc(-c2cc3ccccc3nc2N2CCOCC2)cc1 | – | inactive: -0.362%
O=C(COC(=O)CSc1cccc2cccc(Cl)c12)Nc1ncc(C(F)(F)F)cc1Cl | inconclusive: 112 µM [inhibitor, single point] | –
Cc1cc(OCC(=O)NNC(=O)c2cnccn2)cc(C)c1Cl | – | inactive: -0.511%
Cc1ccc(C(C)C)cc1OCCOCCN1CCCC1 | – | inactive: -0.238%
Cc1ccc(S(=O)(=O)N2CC(=NN=C(N)N)C2)cc1 | inconclusive: 20 µM [inhibitor, single point] | –
C/C(=N/NC(=O)c1nnn(-c2nonc2N)c1COc1ccccc1)c1ccccc1Cl | inconclusive: 25.1 µM [inhibitor, single point] | –
O=C(CC1CCCC1)Nc1ccc2c(c1)CCC2 | – | inactive: 0.602%
COCc1c(C(=O)NCC2COc3ccccc3O2)oc2ccccc12 (stereo unspecified) | – | inactive: 1.28%
COc1cccc(OC)c1OCCNC(C)(C)C | – | inactive: 0.727%
CN(c1ccccc1)S(=O)(=O)c1cccc(NC(=O)c2ccc(=O)[nH]n2)c1 | – | inactive: -0.201%
CN(C)c1ccc(-c2n[nH]c(=S)n2-c2ccccc2)cc1 | inconclusive: 10 µM [inhibitor, single point] | –
COc1cc(OC)nc(Oc2ccccc2C(=O)Oc2ccc(F)cc2Cl)n1 | inconclusive: 25.1 µM [inhibitor, single point] | –
O=C(Cc1csc(-c2ccccc2)n1)NCc1ccc(F)cc1 | inconclusive: 14.1 µM [inhibitor, single point] | –
COc1ccc2cc(/C=N/NC(=O)c3ccc(CN(c4ccc(C)c(C)c4)S(C)(=O)=O)cc3)c(Cl)nc2c1 | inconclusive: 141 µM [inhibitor, partial curve] | –
NC(=O)NC(=O)COC(=O)CNS(=O)(=O)c1ccc(F)c(F)c1F | inconclusive: 22.4 µM [inhibitor, single point] | –
CCn1c(SCC(=O)Nc2cc(C)ccc2C)nnc1-c1cnccn1 | inconclusive: 79.4 µM [inhibitor, single point] | –
O=C(O)CCCn1cc(NC(=O)COc2ccccc2)cn1 | – | inactive: 0.0625%
CSc1nc(N)nc(SCC(=O)c2ccccc2)c1C#N | inconclusive: 89.1 µM [inhibitor, single point] | –
CN(C)CCOCCOc1ccc(Cl)cc1Br | inconclusive: 100 µM [inhibitor, single point] | –
O=C(COc1ccc2ccccc2c1Br)Nc1cccnc1 | – | inactive: -7.55%
COc1ccc(OCC(=O)Nc2ccc(N3CCN(C(=O)c4ccccc4)CC3)c(Cl)c2)cc1 | – | inactive: -1.62%
COc1ccc(N2CCN(C(=O)NCc3ccc(C)cc3)CC2)cc1 | inconclusive: 100 µM [inhibitor, single point] | –

Gathered by group: the entries above with bromine.
Structure (SMILES) | Potency | activity, negative = inhibition
CN(C)CCOCCOc1ccc(Cl)cc1Br | inconclusive: 100 µM [inhibitor, single point] | –
O=C(COc1ccc2ccccc2c1Br)Nc1cccnc1 | – | inactive: -7.55%

Continuation.

Structure (SMILES) | Potency | activity, negative = inhibition
CCCCN(C(=O)C1CC(=O)N(c2ccc(OC)cc2OC)C1)c1c(N)n(CC(C)C)c(=O)[nH]c1=O (stereo unspecified) | inconclusive: 15.8 µM [inhibitor, single point] | –
Cc1cc(C)c(S(=O)(=O)NCc2ccc3c(c2)cc(C)n3C)c(C)c1 | inconclusive: 89.1 µM [inhibitor, single point] | –
O=C(COc1ccccc1Cl)NCCC1=CCCCC1 | inconclusive: 22.4 µM [inhibitor, single point] | –
COc1ccc(-c2cccc([C@H]3[C@@H]4C=CC[C@@H](C)[C@@H]4C(=O)N3Cc3ccccc3)c2)cc1 | – | inactive: 1.11%
O=S(=O)(c1ccc(OCC(O)CN2CCN(c3ccccc3)CC2)cc1)N1CCOCC1 (stereo unspecified) | – | inactive: -2.69%
Brc1ccc(-c2cn3c(n2)CCc2ccc4cccnc4c2-3)cc1 | inconclusive: 100 µM [inhibitor, single point] | –
CCN(CC)C(=O)c1c(NC(=O)c2ccccc2)sc(C)c1C | inconclusive: 22.4 µM [inhibitor, single point] | –
CC(C)(C)c1ccc(/C=N/NC(=O)C[n+]2ccccc2)cc1 | inconclusive: 100 µM [inhibitor, single point] | –
O=S(=O)(/N=C(/Nc1cccc2ccccc12)c1ccc(F)cc1)c1ccccc1 | inconclusive: 63.1 µM [inhibitor, single point] | –
Cc1ccc2cc(-c3noc(C4CCCCC4)n3)c(=O)[nH]c2c1 | inconclusive: 79.4 µM [inhibitor, partial curve, poor fit] | –
OCCC1CN(Cc2cccc(F)c2F)CCN1CCc1ccccc1 (stereo unspecified) | – | inactive: -1.65%
Cc1c(Cl)cccc1NC(=O)COC(=O)c1c2c(nc3ccccc13)CCN(Cc1ccccc1)C2 | inconclusive: 200 µM [inhibitor, partial curve, poor fit] | –
Cc1nonc1CN(C)C(=O)c1ccc(OC2CCN(Cc3ccccn3)CC2)cc1 | inconclusive: 20 µM [inhibitor, single point] | –
CCC[C@H]1COCCS(=O)(=O)N1Cc1ccccc1 | inconclusive: 631 µM [inhibitor, partial curve, poor fit] | –
CCCCNC(=S)N/N=C/c1cc(C)ccc1C | – | inactive: 1.05%
Cc1cc(OC(=O)c2cc(Br)ccc2Cl)c([N+](=O)[O-])c(=O)[nH]1 | – | inactive: -6.2%
C=CCN(C(=O)CCc1ccccc1OC)c1nc(-c2ccc(S(C)(=O)=O)cc2)cs1 | inconclusive: 158 µM [inhibitor, partial curve, poor fit] | –
CCOc1ccc(CCNC(=O)c2ccc3c(=O)[nH]c4c(C(=O)NC(C)C)sc(=S)n4c3c2)cc1 | – | inactive: 2.71%
OCCCNc1nc(-c2ccc(Br)cc2)nnc1-c1ccc(Cl)cc1 | inconclusive: 501 µM [inhibitor, partial curve, poor fit] | –
Cc1ccc(Cl)c(OCC(=O)Nc2ccc(S(=O)(=O)NC3=NCCCCC3)cc2)c1 | inconclusive: 56.2 µM [inhibitor, single point] | –
CC1=NOC(=O)/C1=C\c1ccc(-c2ccc(Cl)c(C(=O)O)c2)o1 | – | inactive: 0.6%
COc1cccc(C(=O)Nc2ccc(N(C)C)cc2)c1OC | inconclusive: 17.8 µM [inhibitor, single point] | –
Cc1noc(C)c1NC(=O)Nc1ccc2c(c1)CC(=O)N([C@@H](C)CO)C[C@@H](C)[C@@H](CN(C)C(=O)Nc1cccc3ccccc13)O2 | – | inactive: -0.434%
